Data taken from the supplement of paper PMC10849652.
The other results are listed elsewhere or left out.

Sequences of proteins named here, by UniProt entry; tags and fusion partners are left off. A change or cut given only in a name is not applied to a line headed by its entry.
UniProt Q9UBF6, whole entry, looked up: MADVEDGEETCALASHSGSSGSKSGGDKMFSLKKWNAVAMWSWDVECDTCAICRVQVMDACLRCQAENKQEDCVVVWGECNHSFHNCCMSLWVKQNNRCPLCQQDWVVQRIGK
UniProt P23443: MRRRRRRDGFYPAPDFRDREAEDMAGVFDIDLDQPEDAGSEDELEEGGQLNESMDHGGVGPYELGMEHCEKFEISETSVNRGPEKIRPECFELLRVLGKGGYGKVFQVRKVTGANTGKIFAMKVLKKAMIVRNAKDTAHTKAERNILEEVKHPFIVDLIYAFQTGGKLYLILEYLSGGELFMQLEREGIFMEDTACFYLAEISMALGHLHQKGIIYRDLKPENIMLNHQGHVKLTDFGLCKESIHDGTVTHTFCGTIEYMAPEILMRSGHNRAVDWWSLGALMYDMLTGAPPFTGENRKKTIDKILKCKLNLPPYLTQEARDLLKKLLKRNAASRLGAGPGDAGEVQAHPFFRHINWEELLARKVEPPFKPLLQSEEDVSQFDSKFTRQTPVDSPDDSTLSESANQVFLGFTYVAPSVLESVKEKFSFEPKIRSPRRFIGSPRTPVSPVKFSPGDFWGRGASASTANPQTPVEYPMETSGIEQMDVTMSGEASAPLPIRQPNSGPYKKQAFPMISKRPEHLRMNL
UniProt P31350, whole entry, looked up: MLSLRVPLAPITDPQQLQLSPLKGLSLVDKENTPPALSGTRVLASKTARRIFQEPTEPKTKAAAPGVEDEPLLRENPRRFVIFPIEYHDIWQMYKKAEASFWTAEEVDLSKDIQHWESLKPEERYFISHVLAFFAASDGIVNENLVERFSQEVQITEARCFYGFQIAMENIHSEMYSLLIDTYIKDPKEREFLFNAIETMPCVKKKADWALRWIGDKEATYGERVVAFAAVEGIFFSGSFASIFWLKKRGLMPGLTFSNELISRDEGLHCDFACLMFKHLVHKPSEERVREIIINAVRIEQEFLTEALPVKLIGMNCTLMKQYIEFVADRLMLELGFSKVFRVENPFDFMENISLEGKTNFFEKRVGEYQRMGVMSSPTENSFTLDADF

Key:
Test in all cases: log2 fold change, soluble protein after heating vs DMSO (PISA); higher = thermal stabilisation; K562 cells, 10 uM, 30 min; active = over 0.2 and 3.5 SD of the protein, either way, in both replicates (recomputed)
[1] = compound: CC[C@@H]1C(=O)N(C)c2cnc(Nc3ccc(C(=O)NC4CCN(C)CC4)cc3OC)nc2N1C1CCCC1
In short: (§1)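 For each measurement, 10 μM compound was applied for 30 min to K562 cells at 2×10^6 cells/mL. Aliquots were heated for 3 min across 48°C-58°C, pooled, and extracted in PBS with 0.5% NP-40 at 4°C; the supernatant after 21,000xg for 90 min was soluble protein. This was quantified by TMTpro 16plex LC-MS/MS with channel sums equalised, and thermal stability was reported relative to control samples from duplicates, on a log2 fold-change scale.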

volasertib = compound: CC[C@@H]1C(=O)N(C)c2cnc(Nc3ccc(C(=O)N[C@H]4CC[C@H](N5CCN(CC6CC6)CC5)CC4)cc3OC)nc2N1C(C)C [volasertib]
In short: as §1

[2] = compound: CC[C@H](C)N1C=C(C2=C(C=C(C=C21)C3=CN=C(C=C3)N4CCNCC4)C(=O)NCC5=C(C=C(NC5=O)C)C)C
In short: as §1

epoxomicin = compound: CC[C@H](C)[C@@H](C(=O)N[C@@H]([C@@H](C)O)C(=O)N[C@@H](CC(C)C)C(=O)[C@]1(CO1)C)NC(=O)[C@H]([C@@H](C)CC)N(C)C(=O)C [epoxomicin]
In short: as §1

[3] = compound: CCn1c(C(=O)N(C2CC2)C2CC2)cc2c3c(ncn3C)c(Nc3cc(C)n(C)n3)nc21
In short: as §1

[4] = compound: CCn1cc(-c2ccnc3[nH]c(-c4cccc(CN(C)C)c4)cc23)c(-c2ccc(NC(=O)N(C)C)cc2)n1
In short: as §1

[5] = compound: CN(C)CC(=O)Nc1ccc2[nH]c(=O)c3ccccc3c2c1
In short: as §1

rosiglitazone = compound: CN(CCOC1=CC=C(C=C1)C[C@H]2C(=O)NC(=O)S2)C3=CC=CC=N3 (racemic) [rosiglitazone]
In short: as §1

[6] = compound: CN1C2=C(C3=C1C(=O)N(N=C3)CC4=CC(=CC=C4)N)SC(=C2)S(=O)C
In short: as §1

[7] = compound: CN1CCC(CNc2ccc3ncc(-c4cccc(OC(F)(F)F)c4)n3n2)CC1
In short: as §1

Measured: log2 fold change

RPL5 (UniProt P46777)
inactive: [1] 0.135 | volasertib 0.318 | [2] 0.004 | epoxomicin -0.254 | [3] -0.023 | [4] 0.146 | [5] -0.099 | rosiglitazone -0.111 | [6] 0.248 | [7] 0.212

RPL36A (UniProt P83881)
inactive: [1] 0.218 | volasertib 0.536 | [2] -0.07 | epoxomicin -0.27 | [3] 0.081 | [4] 0.308 | [5] -0.064 | rosiglitazone -0.263 | [6] 0.327 | [7] 0.321

RNF7 (UniProt Q9UBF6)
inactive: [1] 0.026 | volasertib 0.044 | [2] 0.471 | epoxomicin -0.006 | [3] 0.04 | [4] 0.033 | [5] 0.052 | rosiglitazone 0.007 | [6] -0.052 | [7] 0.066

RPLP0 (UniProt P05388)
inactive: [1] 0.299 | volasertib 0.756 | [2] -0.022 | epoxomicin -0.698 | [3] 0.083 | [4] 0.313 | [5] -0.259 | rosiglitazone -0.291 | [6] 0.508 | [7] 0.429

RPS6KB1 (UniProt P23443)
inactive: [1] -0.016 | volasertib -0.112 | [2] 0.028 | epoxomicin -0.019 | [3] 0.02 | [4] -0.075 | [5] -0.019 | rosiglitazone 0.083 | [6] -0.084 | [7] -0.139

RPS27 (UniProt P42677)
inactive: [1] 0.134 | volasertib 0.223 | [2] 0.037 | epoxomicin -0.144 | [3] -0.001 | [4] 0.029 | [5] -0.01 | rosiglitazone -0.008 | [6] 0.057 | [7] -0.075

RPL26 (UniProt P61254)
inactive: [1] 0 | volasertib 0.519 | [2] 0.056 | epoxomicin -0.424 | [3] -0.044 | [4] -0.119 | [5] -0.116 | rosiglitazone -0.162 | [6] 0.419 | [7] 0.499

RPS29 (UniProt P62273)
inactive: [1] -0.064 | volasertib 0.388 | [2] -0.192 | epoxomicin -0.03 | [3] -0.03 | [4] 0.085 | [5] -0.074 | rosiglitazone -0.224 | [6] 0.17 | [7] 0.24

Looked up one by one from above (2):
RPS29 (UniProt P62273)
inactive: [1] -0.064 | volasertib 0.388 | [2] -0.192 | epoxomicin -0.03 | [3] -0.03 | [4] 0.085 | [5] -0.074 | rosiglitazone -0.224 | [6] 0.17 | [7] 0.24

RPL26 (UniProt P61254)
inactive: [1] 0 | volasertib 0.519 | [2] 0.056 | epoxomicin -0.424 | [3] -0.044 | [4] -0.119 | [5] -0.116 | rosiglitazone -0.162 | [6] 0.419 | [7] 0.499

Remaining list, next part.

RPL15 (UniProt P61313)
inactive: [1] 0.298 | volasertib 0.816 | [2] -0.028 | epoxomicin -0.801 | [3] 0.073 | [4] 0.407 | [5] -0.312 | rosiglitazone -0.307 | [6] 0.633 | [7] 0.487

RPL17 isoform 3 (UniProt P18621)
inactive: [1] 0.182 | volasertib 0.512 | [2] 0.044 | epoxomicin -0.357 | [3] -0.025 | [4] 0.325 | [5] -0.138 | rosiglitazone -0.2 | [6] 0.314 | [7] 0.187

RRM2 isoform 2 (UniProt P31350)
inactive: [1] 0.061 | volasertib 0.075 | [2] -0.018 | epoxomicin 0.077 | [3] 0.011 | [4] -0.04 | [5] -0.006 | rosiglitazone 0.012 | [6] -0.113 | [7] 0.001

RPL30 (UniProt P62888)
inactive: [1] 0.31 | volasertib 0.764 | [2] -0.014 | epoxomicin -0.731 | [3] 0.034 | [4] 0.237 | [5] -0.291 | rosiglitazone -0.353 | [6] 0.429 | [7] 0.434

RPL24 (UniProt P83731)
inactive: [1] 0.191 | volasertib 0.464 | [2] 0.009 | epoxomicin -0.375 | [3] 0.03 | [4] 0.168 | [5] -0.112 | rosiglitazone -0.19 | [6] 0.306 | [7] 0.224
